These are yes or no findings as the source states them, for the method shown.
Legend:
[1] = molecular target: pig CD177 on pig neutrophils (pig (endogenous in neutrophils)); experiment: flow cytometry on cells; immune cells isolated from blood (human, pig, rat, mouse), 1 × 10^5 cells a well, free fluorescent peptide 1 µg ml^−1 for 20 min at 4 °C; human neutrophils co-stained with anti-CD177 monoclonal antibody; only the binder purified
[2] = molecular target: rat CD177 on rat neutrophils (rat (endogenous in neutrophils)); experiment: as above

binding [1]: no binding (tested: 1 µg ml^−1)
binding [2]: no binding (tested: 1 µg ml^−1)
Binder: DLVTSKLQVGGGC (carboxyfluorescein on the N-terminus; C-terminal cysteine with free sulfhydryl) [human neutrophil-specific peptide (hNP), free peptide]

Reference: article PMC11357992, “Non-invasive mapping of systemic neutrophil dynamics upon cardiovascular injury” (Nature Cardiovascular Research, 2023)
